In this experiment the test system is NCI-H295R. Put plainly: cells. The conditions noted are these: Homo sapiens, read-out: IC-50 (dose that induces a 50% reduction in viability).

Take `CCN(c1cc(-c2ccc(CN3CCOCC3)cc2)cc(C(=O)NCc2c(C)cc(C)[nH]c2=O)c1C)C1CCOCC1` [EPZ-6438]: the IC50 came to 62 µM.
